Patent publication US20210154316A1, “Immunoconjugates” (Bolt Biotherapeutics, Inc., priority 2018, published 2021)
At least one structure is not confirmed: it was looked up by name or label, or the drawing left a doubt.

Columns and labels:
[1] = target: T1, human TLR7 (Homo sapiens, UniProt Q9NYK1); experiment: HEK293 reporter assay (NF-κB activity), human TLR7; type: cell-based; settings: as compared to Adjuvant 1, FIG. 12
T1 construct: host or cells: HEK293 reporter cells
T1 sequence (Q9NYK1 27-1049): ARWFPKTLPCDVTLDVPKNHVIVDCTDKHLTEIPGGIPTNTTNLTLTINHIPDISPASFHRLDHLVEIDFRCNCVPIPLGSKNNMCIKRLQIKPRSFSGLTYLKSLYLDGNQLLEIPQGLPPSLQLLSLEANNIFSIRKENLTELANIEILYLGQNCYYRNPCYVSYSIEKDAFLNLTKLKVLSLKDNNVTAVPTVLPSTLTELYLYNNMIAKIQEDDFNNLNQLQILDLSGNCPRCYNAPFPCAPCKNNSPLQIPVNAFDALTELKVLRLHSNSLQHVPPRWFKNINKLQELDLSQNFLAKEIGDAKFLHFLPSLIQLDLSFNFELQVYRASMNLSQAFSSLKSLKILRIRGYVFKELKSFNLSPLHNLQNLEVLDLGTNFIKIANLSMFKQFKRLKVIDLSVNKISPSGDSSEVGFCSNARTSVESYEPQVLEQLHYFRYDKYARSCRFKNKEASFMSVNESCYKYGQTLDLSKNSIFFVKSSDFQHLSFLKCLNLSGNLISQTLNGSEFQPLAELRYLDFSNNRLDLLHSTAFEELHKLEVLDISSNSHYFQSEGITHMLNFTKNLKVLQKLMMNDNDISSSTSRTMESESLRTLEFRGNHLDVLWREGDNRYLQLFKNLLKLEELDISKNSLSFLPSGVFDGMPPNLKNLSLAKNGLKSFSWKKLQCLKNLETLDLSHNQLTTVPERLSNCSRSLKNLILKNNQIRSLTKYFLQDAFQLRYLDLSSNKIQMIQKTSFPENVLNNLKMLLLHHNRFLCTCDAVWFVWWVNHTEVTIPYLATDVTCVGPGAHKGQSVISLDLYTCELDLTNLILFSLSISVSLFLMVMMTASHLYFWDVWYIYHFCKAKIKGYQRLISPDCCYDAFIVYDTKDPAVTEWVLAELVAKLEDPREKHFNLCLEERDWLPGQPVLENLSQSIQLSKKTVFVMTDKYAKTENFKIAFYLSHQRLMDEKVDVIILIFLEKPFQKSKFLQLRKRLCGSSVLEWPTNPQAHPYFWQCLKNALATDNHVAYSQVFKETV

[2] = target: T2, human TLR8 (Homo sapiens, UniProt Q9NR97); experiment: HEK293 reporter assay (NF-κB activity), human TLR8; type: cell-based; settings: as compared to Adjuvant 1, FIG. 12
T2 construct: host or cells: HEK293 reporter cells
T2 sequence (Q9NR97 27-1041): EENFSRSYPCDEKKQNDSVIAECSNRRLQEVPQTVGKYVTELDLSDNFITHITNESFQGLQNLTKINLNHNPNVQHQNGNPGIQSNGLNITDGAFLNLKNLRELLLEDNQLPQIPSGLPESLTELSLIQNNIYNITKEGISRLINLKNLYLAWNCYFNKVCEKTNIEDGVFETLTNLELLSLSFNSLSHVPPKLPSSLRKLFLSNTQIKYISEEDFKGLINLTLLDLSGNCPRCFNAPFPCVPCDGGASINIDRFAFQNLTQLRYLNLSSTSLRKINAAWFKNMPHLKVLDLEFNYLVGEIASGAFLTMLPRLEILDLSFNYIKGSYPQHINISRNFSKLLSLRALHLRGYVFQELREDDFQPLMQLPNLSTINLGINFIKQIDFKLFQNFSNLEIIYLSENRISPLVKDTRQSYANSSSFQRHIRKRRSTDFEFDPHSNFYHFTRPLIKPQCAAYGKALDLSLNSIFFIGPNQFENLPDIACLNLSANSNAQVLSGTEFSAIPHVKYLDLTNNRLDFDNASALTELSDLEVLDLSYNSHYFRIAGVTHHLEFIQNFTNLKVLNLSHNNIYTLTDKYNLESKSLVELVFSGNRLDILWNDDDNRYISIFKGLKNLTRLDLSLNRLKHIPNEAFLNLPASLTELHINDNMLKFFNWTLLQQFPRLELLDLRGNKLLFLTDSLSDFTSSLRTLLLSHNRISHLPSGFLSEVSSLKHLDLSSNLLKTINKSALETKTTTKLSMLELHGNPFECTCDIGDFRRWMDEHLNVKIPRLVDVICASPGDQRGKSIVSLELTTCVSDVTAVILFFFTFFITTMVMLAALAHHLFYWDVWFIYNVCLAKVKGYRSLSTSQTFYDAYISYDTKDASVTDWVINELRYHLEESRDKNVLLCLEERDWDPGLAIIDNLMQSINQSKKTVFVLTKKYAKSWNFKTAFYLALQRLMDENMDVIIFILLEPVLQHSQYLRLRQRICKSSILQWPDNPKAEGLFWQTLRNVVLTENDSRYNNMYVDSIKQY

CCCCc1nc2cnc3ccccc3c2n1CCCCN [Adjuvant 2]
activity in TLR7 reporter cells [1]: completely inactive
activity in TLR8 reporter cells [2]: completely inactive
